# Results from the supplement of paper PMC3334620.
# Over roughly 33,000 sequences, “E-score (-0.5 to 0.5)” has its median near -0.015; the highest 2% begin near 0.3. The list shows a part of the results.
# Target: T1, Abf1 (UniProt P14164)
# T1 sequence: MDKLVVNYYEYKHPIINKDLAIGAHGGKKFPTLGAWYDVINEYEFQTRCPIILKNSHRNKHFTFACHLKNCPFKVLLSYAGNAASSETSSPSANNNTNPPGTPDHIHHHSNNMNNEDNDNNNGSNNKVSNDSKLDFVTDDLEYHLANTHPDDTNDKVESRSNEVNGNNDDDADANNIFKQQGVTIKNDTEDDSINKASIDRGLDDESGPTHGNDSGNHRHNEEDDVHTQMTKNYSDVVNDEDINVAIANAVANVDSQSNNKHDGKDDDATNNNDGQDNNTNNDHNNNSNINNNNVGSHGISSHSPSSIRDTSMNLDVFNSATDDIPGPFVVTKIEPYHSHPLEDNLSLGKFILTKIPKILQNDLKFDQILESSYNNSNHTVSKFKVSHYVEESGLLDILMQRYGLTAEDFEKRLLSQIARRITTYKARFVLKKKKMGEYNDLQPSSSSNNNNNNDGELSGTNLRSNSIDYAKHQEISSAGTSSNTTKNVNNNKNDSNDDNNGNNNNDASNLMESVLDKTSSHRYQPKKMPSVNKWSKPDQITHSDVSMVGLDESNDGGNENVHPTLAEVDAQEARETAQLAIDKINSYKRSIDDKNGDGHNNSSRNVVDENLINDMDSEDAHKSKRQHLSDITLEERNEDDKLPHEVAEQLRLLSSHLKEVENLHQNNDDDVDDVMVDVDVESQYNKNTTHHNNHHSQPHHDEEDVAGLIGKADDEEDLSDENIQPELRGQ
# Test: PBM E-score (8-mer binding enrichment) (E-score (-0.5 to 0.5)); higher = stronger / more preferred TF binding
# Settings: protein concentration: 200 nM; construct: GST-full length
# In short: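 Yeast transcription factors, full-length or as DNA-binding domains, were expressed with a GST tag using PURExpress in vitro transcription/translation. At about 100-200 nM they were applied to universal all-10-mer Agilent arrays, double-stranded by primer extension on fresh or once-stripped slides. Fluorescent anti-GST detected bound protein, and masliner normalised the scans. E-scores for ungapped eight-base words, pooled with reverse complements, came from the Universal PBM Analysis Suite.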
row,Sequence,PBM E-score
1,AGCTTTCG,-0.0181
2,CAAGGTCC,-0.106
3,TCCCGAGA,0.11
4,GCACAAGA,0.00987
5,ACGACACG,0.223
6,GTAACCCA,0.0173
7,AGACTTAG,-0.158
8,TATCCCAA,0.0219
9,ACGTTACG,0.133
10,TATGAGGA,-0.0672
11,AGTTCGGC,-0.0604
12,TACATTGA,0.058
13,AGGAACAA,-0.0887
14,ACTAAGAA,-0.0373
15,ACGAGTCC,0.0176
16,GGCCATAC,-0.0756
17,GGACCAAA,0.0953
18,ACGCTTAC,-0.132
19,CATCGTAG,0.117
20,CCTAGTTA,0.0535
21,CCCACTCA,-0.0863
22,ATCTATCC,0.0607
23,AGGTATCA,0.145
24,CATATCAC,0.389
25,ATTGTAGC,-0.0285

row,Sequence,PBM E-score
1,ACAAAATA,0.0246
2,GATGAATC,0.2
3,ACTCTAAC,-0.148
4,CCGAACAG,-0.0735
5,CGTGTAGC,0.0125
6,CTCGCGGC,-0.0716
7,CTATACTC,-0.112
8,AGCCGCCC,-0.0951
9,CGATTCCC,-0.154
10,AGTGAGTG,0.0115
11,AGTCGCAC,-0.139
12,AATTCTTG,0.0803
13,CAACCCGC,-0.122
14,CGCCCAAA,0.0323
15,ACTCTCCA,0.0138
16,ATCCCTTC,-0.0393
17,AACGACGC,0.0599
18,CGCTGAAC,0.144
19,GCCAGTGA,0.115
20,CACTTACG,0.151
21,AACGCCTG,-0.0455
22,ACATCACC,0.353
23,ACAATATG,0.105
24,CCATAAAA,0.0514
25,GACAGCCA,0.0192

row,Sequence,PBM E-score
1,TCACAGAA,0.0294
2,CTTGAACC,0.00344
3,AATATATT,0.159
4,ACCCGGCC,-0.131
5,AAAGAGTA,-0.0449
6,AGCTTTGA,-0.124
7,CGGAAGTC,0.0627
8,CTTTGTGA,0.0277
9,CCTTCTCA,-0.141
10,GATTGGTA,0.109
11,AGGCAACG,-0.135
12,CCTGAAAG,0.192
13,GACCACAC,0.0366
14,GACCCCTC,-0.387
15,GGCCCTAC,-0.184
16,GCGCGCGC,0.197
17,AACCCGAT,0.129
18,CAGGGTAC,-0.116
19,CAGCCGGC,-0.0851
20,CTAACCAA,0.0195
21,CCTGACCC,-0.263
22,CAGCGCTA,-0.0154
23,TACGGTAA,0.124
24,GGGAGTGA,0.152
25,AGAAGGCT,-0.206

row,Sequence,PBM E-score
1,AGGTTATA,-0.0486
2,ATAAAGTC,0.18
3,CCTCGAAG,0.092
4,GCTGAACA,-0.012
5,ATACTGAT,0.155
6,CCGTAGTA,0.119
7,GGCTTCAA,-0.133
8,ATTTCGCA,0.123
9,AAGGTCTG,-0.148
10,CCAATTCG,0.0107
11,AGTAAGCC,-0.154
12,CTCACATC,0.0864
13,CCCAAAGG,-0.158
14,AGATAAGC,-0.0966
15,CGTAAGTA,0.284
16,ACAAGTAG,-0.271
17,AACTCTAC,-0.203
18,CAACCAAA,0.0361
19,AGGGAGAA,0.041
20,CCACTACA,-0.0773
21,CCTCTTAA,-0.0892
22,CATTGCTA,0.176
23,AACCGTTA,-0.0271
24,GACCCATA,0.0597
25,GATAATGA,0.237

# 2 records drawn at random from those above:
row,Sequence,PBM E-score
16,ACAAGTAG,-0.271
4,ACCCGGCC,-0.131

# Part of the list above, with bars between the fields.
row | Sequence | PBM E-score
19 | CAGCCGGC | -0.0851
20 | CTAACCAA | 0.0195
21 | CCTGACCC | -0.263
22 | CAGCGCTA | -0.0154

# Next records

row,Sequence,PBM E-score
1,AAATGCGC,-0.0662
2,GTGCAATA,0.00211
3,CATCGTAA,0.106
4,ACTCTATA,0.145
5,GGTCATCA,0.196
6,ACTCACGC,-0.0481
7,AGGTGTCC,0.0332
8,AAGAAAGT,-0.019
9,AGTAAAGC,-0.0263
10,TCCTTTCA,-0.0567
11,CCTGAGAC,-0.128
12,ACGATCGG,0.168
13,CGCCGTTC,0.331
14,AGGGACCC,-0.271
15,GAGCTACA,-0.256
16,CATATATA,0.0278
17,AGACAATG,0.0762
18,AACAGGAC,0.0871
19,AACCGCCG,-0.089
20,CGGACGAC,0.343
21,ATATGTAA,0.068
22,ATAATGGG,0.115
23,CAAGATAA,0.227
24,AGACCAGC,-0.283
25,ACTCCGTA,0.149

row,Sequence,PBM E-score
1,CAAGTTCG,-0.311
2,AGAGATCA,0.138
3,CTGTAATC,-0.0577
4,ATCGAAAT,0.0958
5,ACGGAACT,0.188
6,CAAGATGA,0.118
7,TAACGGGA,0.00652
8,ACCCAAGG,0.0372
9,TATCAGCA,0.092
10,ATCGACTA,0.029
11,ATCTGGGC,-0.214
12,ATTCTGCA,-0.00808
13,GCTCCGAC,-0.327
14,ACCTAAAG,-0.0062
15,GTCAAGAC,-0.0184
16,CCAAACCG,-0.0285
17,ATGCGCCA,-0.0239
18,AGACGTTC,0.0192
19,ACGGTTCC,0.136
20,GACCGCAC,0.0148
21,TGGCACCA,-0.221
22,CTTATCGC,0.108
23,AGCGCGAT,0.229
24,ATTGTGGG,-0.127
25,GCAGTCCA,-0.0162

row,Sequence,PBM E-score
1,CATGCTAA,0.0181
2,GACGCTCC,-0.234
3,CACCTGCA,-0.00768
4,GTAGCCGA,-0.0489
5,ACCCTTTC,-0.112
6,ACAGACGC,-0.0922
7,GCCTCGTA,0.214
8,GAACGTGA,0.105
9,CTAATGCA,0.129
10,CACGTCTC,0.0146
11,ATAAACCG,-0.00447
12,GGGCGCCC,-0.0112
13,CGTCGGAG,0.252
14,ACACACGG,0.0803
15,GCCTGAAA,0.0257
16,GCGCACCC,-0.0573
17,GAATAACC,-0.0459
18,ATGCTGAG,-0.133
19,CAACGCAG,-0.169
20,AACCGACC,0.0181
21,CCGCCTGA,-0.171
22,ATGAGCAT,0.0212
